Holding throughout (assay type): cell-based
In experiment [1] the target is T1, RNA polymerase II (Mus musculus) (UniProt P08775+Q8CFI7+P97760+A0A3Q4L2S8+Q80UW8+P61219+P62488+Q923G2+P60898+O08740+Q63871+P62876). Kind of experiment: Inhibition of RNA polymerase II in mouse B16-F1 migrating cells assessed as fold change in Ckb-RNA stability at 0.1 mM measured by ChIP-seq analysis relative to control cells.
Experiment [2] concerns the target T1, RNA polymerase II (Mus musculus). Kind of experiment: Inhibition of RNA polymerase II in mouse B16-F1 migrating cells assessed as fold change in Ldha-RNA stability at 0.1 mM measured by ChIP-seq analysis relative to control cells.
Experiment [3] has the same target. The experiment in a line: Inhibition of RNA polymerase II in mouse B16-F1 migrating cells assessed as fold change in Arl5a-RNA stability at 0.1 mM measured by ChIP-seq analysis relative to control cells.
The target is the same in experiment [4]. The experiment in a line: Inhibition of RNA polymerase II in mouse B16-F1 migrating cells assessed as fold change in Prkcz-RNA stability at 0.1 mM measured by ChIP-seq analysis relative to control cells.
Experiment [5] has the same target. Kind of experiment: Inhibition of RNA polymerase II in mouse B16-F1 migrating cells assessed as fold change in Cwf19l2-RNA stability at 0.1 mM measured by ChIP-seq analysis relative to control cells.
Experiment [6] shares this target. The experiment in a line: Inhibition of RNA polymerase II in mouse B16-F1 migrating cells assessed as fold change in Smim12-RNA stability at 0.1 mM measured by ChIP-seq analysis relative to control cells.
Experiment [7] shares this target. The experiment in a line: Inhibition of RNA polymerase II in mouse B16-F1 migrating cells assessed as fold change in 0610012G03Rik-RNA stability at 0.1 mM measured by ChIP-seq analysis relative to control cells.
Experiment [8] has the same target. Kind of experiment: Inhibition of RNA polymerase II in mouse B16-F1 migrating cells assessed as fold change in Csnk2a1-RNA stability at 0.1 mM measured by ChIP-seq analysis relative to control cells.
The target is the same in experiment [9]. The experiment in a line: Inhibition of RNA polymerase II in mouse B16-F1 migrating cells assessed as fold change in Csde1-RNA stability at 0.1 mM measured by ChIP-seq analysis relative to control cells.
Experiment [10] shares this target. The experiment in a line: Inhibition of RNA polymerase II in mouse B16-F1 migrating cells assessed as fold change in Rad51ap1-RNA stability at 0.1 mM measured by ChIP-seq analysis relative to control cells.
The target is the same in experiment [11]. Kind of experiment: Inhibition of RNA polymerase II in mouse B16-F1 migrating cells assessed as fold change in Bbc3-RNA stability at 0.1 mM measured by ChIP-seq analysis relative to control cells.
Experiment [12] has the same target. Kind of experiment: Inhibition of RNA polymerase II in mouse B16-F1 migrating cells assessed as fold change in D3Ertd751e-RNA stability at 0.1 mM measured by ChIP-seq analysis relative to control cells.
Experiment [13] shares this target. Kind of experiment: Inhibition of RNA polymerase II in mouse B16-F1 migrating cells assessed as fold change in C1galt1-RNA stability at 0.1 mM measured by ChIP-seq analysis relative to control cells.
Experiment [14] shares this target. The experiment in a line: Inhibition of RNA polymerase II in mouse B16-F1 migrating cells assessed as fold change in Zfp992-RNA stability at 0.1 mM measured by ChIP-seq analysis relative to control cells.
Experiment [15] shares this target. The experiment in a line: Inhibition of RNA polymerase II in mouse B16-F1 migrating cells assessed as fold change in Kdm1b-RNA stability at 0.1 mM measured by ChIP-seq analysis relative to control cells.
Experiment [16] concerns the target Histone-lysine N-methyltransferase EZH2 (Mus musculus) (UniProt Q61188). Kind of experiment: Inhibition of EZH2 in mouse B16-F1 migrating cells assessed as fold change in H3K27me3-buffered regulated Cyp51-mRNA expression at 3 uM measured by ChIP-seq analysis relative to control cells.
Experiment [17] shares this target. Kind of experiment: Inhibition of EZH2 in mouse B16-F1 migrating cells assessed as fold change in H3K27me3-buffered regulated Hsd17b7-mRNA expression at 3 uM measured by ChIP-seq analysis relative to control cells.
Experiment [18] shares this target. Kind of experiment: Inhibition of EZH2 in mouse B16-F1 migrating cells assessed as fold change in H3K27me3-buffered regulated Perp-mRNA expression at 3 uM measured by ChIP-seq analysis relative to control cells.
The target is the same in experiment [19]. The experiment in a line: Inhibition of EZH2 in mouse B16-F1 migrating cells assessed as fold change in H3K27me3-buffered regulated Ccnl1-mRNA expression at 3 uM measured by ChIP-seq analysis relative to control cells.
For experiment [20] the target is unchanged. Kind of experiment: Inhibition of EZH2 in mouse B16-F1 migrating cells assessed as fold change in H3K27me3-buffered regulated Mum1-mRNA expression at 3 uM measured by ChIP-seq analysis relative to control cells.
Experiment [21] has the same target. The experiment in a line: Inhibition of EZH2 in mouse B16-F1 migrating cells assessed as fold change in H3K27me3-buffered regulated Pank4-mRNA expression at 3 uM measured by ChIP-seq analysis relative to control cells.
Experiment [22] has the same target. Kind of experiment: Inhibition of EZH2 in mouse B16-F1 migrating cells assessed as fold change in H3K27me3-independent regulated Bmt2-mRNA expression at 3 uM measured by ChIP-seq analysis relative to control cells.
Experiment [23] shares this target. The experiment in a line: Inhibition of EZH2 in mouse B16-F1 migrating cells assessed as fold change in H3K27me3-buffered regulated Kcnk5-mRNA expression at 3 uM measured by ChIP-seq analysis relative to control cells.
Experiment [24] shares this target. The experiment in a line: Inhibition of EZH2 in mouse B16-F1 migrating cells assessed as fold change in H3K27me3-buffered regulated Slc3a2-mRNA expression at 3 uM measured by ChIP-seq analysis relative to control cells.
Experiment [25] has the same target. The experiment in a line: Inhibition of EZH2 in mouse B16-F1 migrating cells assessed as fold change in H3K27me3-independent regulated Prdm16-mRNA expression at 3 uM measured by ChIP-seq analysis relative to control cells.
The target is the same in experiment [26]. Kind of experiment: Inhibition of EZH2 in mouse B16-F1 migrating cells assessed as fold change in H3K27me3-dependent regulated Ttbk1-mRNA expression at 3 uM measured by ChIP-seq analysis relative to control cells.
For experiment [27] the target is unchanged. The experiment in a line: Inhibition of EZH2 in mouse B16-F1 migrating cells assessed as fold change in H3K27me3-buffered regulated Gm20457-mRNA expression at 3 uM measured by ChIP-seq analysis relative to control cells.
Experiment [28] has the same target. Kind of experiment: Inhibition of EZH2 in mouse B16-F1 migrating cells assessed as fold change in H3K27me3-independent regulated Nog-mRNA expression at 3 uM measured by ChIP-seq analysis relative to control cells.
Experiment [29] shares this target. Kind of experiment: Inhibition of EZH2 in mouse B16-F1 migrating cells assessed as fold change in H3K27me3-buffered regulated Ckap2-mRNA expression at 3 uM measured by ChIP-seq analysis relative to control cells.
For experiment [30] the target is unchanged. Kind of experiment: Inhibition of EZH2 in mouse B16-F1 migrating cells assessed as fold change in H3K27me3-buffered regulated Usp2-mRNA expression at 3 uM measured by ChIP-seq analysis relative to control cells.

The chains behind the UniProt entries cited, without tags or fusion partners.
UniProt Q61188, whole entry: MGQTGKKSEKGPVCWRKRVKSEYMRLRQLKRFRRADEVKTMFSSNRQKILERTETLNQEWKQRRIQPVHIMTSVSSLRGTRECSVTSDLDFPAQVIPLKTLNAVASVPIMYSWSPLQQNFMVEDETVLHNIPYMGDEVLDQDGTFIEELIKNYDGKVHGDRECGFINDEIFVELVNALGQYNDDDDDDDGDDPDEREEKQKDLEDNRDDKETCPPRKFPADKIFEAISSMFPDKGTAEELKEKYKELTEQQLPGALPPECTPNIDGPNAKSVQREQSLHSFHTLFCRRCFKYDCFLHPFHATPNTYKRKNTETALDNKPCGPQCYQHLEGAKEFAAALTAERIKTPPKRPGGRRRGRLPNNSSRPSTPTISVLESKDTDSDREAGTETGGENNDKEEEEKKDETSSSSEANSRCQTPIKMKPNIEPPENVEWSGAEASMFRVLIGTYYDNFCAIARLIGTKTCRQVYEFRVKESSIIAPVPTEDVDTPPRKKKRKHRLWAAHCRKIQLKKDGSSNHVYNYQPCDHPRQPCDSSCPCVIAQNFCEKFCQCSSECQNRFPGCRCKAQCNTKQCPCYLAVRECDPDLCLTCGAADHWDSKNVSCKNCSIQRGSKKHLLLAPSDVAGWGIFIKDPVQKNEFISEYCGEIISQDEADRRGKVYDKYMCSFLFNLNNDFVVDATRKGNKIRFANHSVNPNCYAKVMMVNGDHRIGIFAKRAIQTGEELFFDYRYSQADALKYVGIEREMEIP

Among the data in ChEMBL document CHEMBL5674883, “The Heterochromatin Landscape in Migrating Cells and the Importance of H3K27me3 for Associated Transcriptome Alterations” (Cells, 2018) are log2FC values, retold here.

This continues a long series; more values of the same kind are listed elsewhere.

For `OC[C@H]1O[C@@H](n2cnc3cc(Cl)c(Cl)cc32)[C@H](O)[C@@H]1O`, the log2FC was 0.44 in experiment [1]; 0.64 in experiment [2]; -0.46 in [3]; 0.55 in [4]; -0.89 in experiment [5]; 0.6 in [6]. The log2FC in experiment [7] is 0.65; in [8], -0.48; in experiment [9] it was -0.73; in experiment [10], -0.45; in [11], -0.86; in [12], -0.95. In addition, the log2FC in experiment [13] is -0.5; in [14] it was -0.86; in [15], -0.58.
For the compound `CCCc1cc(C)[nH]c(=O)c1CNC(=O)c1cc(-c2ccnc(N3CCN(C)CC3)c2)cc2c1cnn2C(C)C`, the log2FC was 0.48 in experiment [16]; 0.76 in [17]; 0.83 in [18]; -0.53 in experiment [19]; -0.55 in experiment [20]; -0.51 in experiment [21]. The log2FC in experiment [22] was -0.69; in experiment [23] it was 0.54; in experiment [24], 0.5; in experiment [25], -0.54; in experiment [26] it was -0.12; in [27] it was -1.08. Besides, the log2FC is 0.47 in [28], -0.45 in [29] and 0.71 in experiment [30].
